Test results reported in patent US20240166755A1, “CHIMERIC ANTIGEN RECEPTORS TARGETING CANCER” (University of Southern California, priority 2016, published 2024).
At least one structure is not confirmed: it was looked up by name or label, or the drawing left a doubt.

What was measured:
[1] = system: CAR-T cells induced death of RAJI-GLuc cells; assay: Effect of drugs on CAR-T cell-induced death of RAJI-GLuc cells (GLuc assay); assay type: cell-based, human; conditions: for CAR-T cell-induced death of RAJI-pLenti-GLuc cells: versus media alone; for CD19-CAR-T cells induced cell death: FMC63 and CD19MM CAR-T cells, about 4 h
[2] = system: Blinatumomab induced cell death of RAJI-GLuc cells mediated by T cells; assay: Blinatumomab-induced, T cell-mediated death of RAJI-GLuc cells and its block by drugs (GLuc assay); assay type: cell-based, human; conditions: 100 nM, 96 hours
[3] = system: NK92 cells mediated death of K562 cells; assay: Effect of Dasatinib on NK92MI cell-mediated death of K562-Gluc cells (Gluc assay); conditions: Dasatinib 50 nM and 100 nM, E:T 0.5:1, 4 h
[4] = system: CAR-expressing NK92MI cells induced death of RAJI-GLuc cells; assay: Effect of Dasatinib on death of RAJI-GLuc cells induced by CAR-expressing NK92MI cells (Gluc assay); conditions: FMC63 CAR NK92MI cells, 4 h

SMILES | CAR-T cell-induced death of RAJI-pLenti-GLuc cells ([1]; CD19Bu12 CAR-T cells) | CAR-T cells induced death of RAJI-pLenti-GLuc cells ([1]; CD19Bu12 CAR-T cells, concentration not given) | CAR-induced cell death ([1]; CD19MM CAR-T cells, E:T 5:1, 4 h, 50 nM and 100 nM) | killing of RAJI-GLuc cells by CD22 CAR-T cells ([1]; CD22-m971 CAR-T cells, 96 h co-culture) | CD19-CAR-T cells induced cell death ([1]; 50 nM) | CD19-CAR-T cells induced cell death ([1]; 100 nM) | Blinatumomab-induced death of RAJI-GLuc cells [2] | NK92 cells mediated death of K562 cells [3] | death of RAJI-GLuc cells by CAR-expressing NK92MI cells [4]
Cc1nc(Nc2ncc(C(=O)Nc3c(C)cccc3Cl)s2)cc(N2CCN(CCO)CC2)n1 [Dasatinib] | significant inhibition | blocked | inhibition | effectively blocks killing | partially blocked | completely blocked | effectively blocked | blocks | blocks
N#CC[C@H](C1CCCC1)n1cc(-c2ncnc3[nH]ccc23)cn1 [Ruxolitinib] | mild to modest inhibition | – | – | – | – | – | – | – | –
